Assay results from PMC3467072 (Nucleic Acids Research, 2012).

Target: Wild-type Rv3066 (Mycobacterium tuberculosis, UniProt I6X658)
Test: biochemical

**Q.** Which Kd does the source give for CSc1ccc2c(c1)N(CCC1CCCCN1C)c1ccccc1S2 (stereo not shown) [thioridazine] here?
**A.** 212 ± 34.2 µM
